The whole screen tested about 220,000 compounds, of which about 770 (0.35%) were called active. This list was built around the results that the source calls inconclusive (neither active nor inactive); the mix of calls is not that of the screen. No stated cut-off is given here; in the data, active means binding response below about 49% or above about 150%; inconclusive means no clear call, values can overlap the other calls; inactive means in between.
What follows are compounds tested against Guanine nucleotide-binding protein G(o) subunit alpha (Homo sapiens) (UniProt P09471) (assay: RGS7-Galphao binding modulators, primary screen, biochemical, multiplexed bead flow cytometry (AID 1439;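 further: fluorescent Galphao held in activated GDP-AlF4 state binding bead-coupled RGS7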)). Conditions: at 10 µM, actives lie on both sides.

Sequences of proteins named here, by UniProt entry; tags and fusion partners are left off.
UniProt P09471, whole entry, looked up: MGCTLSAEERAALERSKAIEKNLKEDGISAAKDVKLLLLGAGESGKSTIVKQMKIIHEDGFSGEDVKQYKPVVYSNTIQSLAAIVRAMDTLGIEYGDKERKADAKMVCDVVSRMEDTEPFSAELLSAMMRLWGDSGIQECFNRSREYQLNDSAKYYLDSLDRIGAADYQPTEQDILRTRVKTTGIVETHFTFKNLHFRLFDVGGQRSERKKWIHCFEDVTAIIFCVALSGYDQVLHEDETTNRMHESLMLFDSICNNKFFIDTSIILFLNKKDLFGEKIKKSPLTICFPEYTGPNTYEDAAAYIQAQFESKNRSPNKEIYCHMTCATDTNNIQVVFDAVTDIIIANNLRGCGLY

Compound | binding response (% of control)
CC1CC(C)CN(S(=O)(=O)c2ccc3c(c2)oc(=O)n3CC(=O)NCc2cccnc2)C1 (configuration not stated) | inconclusive: 90.9%
CCNc1nc(NCC)nc(N/N=C(\C)c2ccc(OC)cc2)n1 | inconclusive: 113%
Cc1c(Cc2ccccc2)c(NCCCO)n2c(nc3ccccc32)c1C#N | inconclusive: 110%
COc1ccc(/C=N/NC(=O)Cn2nc([N+](=O)[O-])cc2C)c(OC)c1OC | inconclusive: 110%
Cc1cc(NC(=O)c2ccccc2Cl)n(C(C)(C)C)n1 | inconclusive: 110%
Cc1ccc(C)c(S(=O)(=O)N/N=C/c2ccc(N3CCOCC3)cc2)c1 | inconclusive: 87%
CCCCCCc1ccc(OCC(=O)OC)cc1OCC(=O)OC | inactive: 94.7%
FC(F)(F)c1cnc(COc2ccc(Cl)cc2Cl)c(Cl)c1 | inconclusive: 105%
COc1ccc(-c2nn(-c3ccccc3)cc2/C=C(\CC(=O)O)c2nc3ccccc3s2)cc1OC | inconclusive: 80%
C/C(=N\NC(=O)Cn1ccc(C(F)(F)F)n1)c1ccc(N2CCOCC2)cc1 | inconclusive: 120%
Cc1cc2nc(Cl)c(Cl)nc2cc1C | inconclusive: 111%
COc1ccccc1NC(=O)Nc1ccccc1N1CCOCC1 | inconclusive: 45.3%
Cc1ccc(NC(=O)c2ccc(Oc3ncccn3)cc2)cc1 | inconclusive: 111%
Cc1oc(-c2ccc3ccccc3c2)nc1CN(C)C(C)c1ccncn1 (configuration not stated) | inactive: 103%
COC(=O)CCSCC(=O)Nc1ccc(C)c(S(=O)(=O)N2CCCCC2)c1 | inconclusive: 127%
Cc1cccc(NC(=S)N2CCC(c3nc4ccccc4o3)CC2)c1C | active: 42.5%
Cc1nn2c(N3CCN(CCO)CC3)c3c(nc2c1-c1ccccc1)CCCC3 | inconclusive: 116%
Cc1onc(-c2ccccc2Cl)c1C(=O)N1CCCc2ccccc21 | inactive: 98.8%
C/C(=N\NC(N)=O)c1c(F)cccc1F | inconclusive: 80.8%
NS(=O)(=O)c1cccc(NC(=O)CSc2nnc(C3CC3)n2Cc2ccccc2)c1 | inconclusive: 189%
O=C(Cn1cncn1)N/N=C/c1ccccc1O | inconclusive: 47.7%
Nc1nnn(CC(=O)N/N=C/C=C/c2ccccc2)n1 | inconclusive: 58.3%
O=C(Nc1nnc(COc2ccc(Cl)cc2)s1)c1ccco1 | inactive: 128%

Compound | binding response (% of control)
COC(=O)c1sc2ncn(N)c(=O)c2c1C | inconclusive: 97.5%
CC(=O)N1c2ccc(N=Cc3cc(Br)cc(Br)c3O)cc2CC1C (configuration not stated) | inconclusive: 113%
CC1CCC2(CC1)SCC(=O)N2c1ccc(F)cc1 (configuration not stated) | inconclusive: 102%
CC1CC(C)CN(C(=O)C(C)N(C)CC(=O)Nc2ccc(Cl)cc2)C1 (configuration not stated) | inactive: 94.3%
COc1ccccc1OCCn1c(=O)oc2ccc(C)cc21 | inactive: 98.6%
NC(=O)C1=CN(Cc2ccc(Cl)cc2)CCC1C(F)(F)F (configuration not stated) | inconclusive: 90.8%
CC(C)N(C(=S)NCc1ccccc1)c1ccccc1 | inconclusive: 106%
Cc1ccc(NC2=NC(c3ccc(F)cc3)n3c(nc(C)cc3=O)N2)cc1 (configuration not stated) | inconclusive: 104%
O=Cc1cccc(Oc2ccc([N+](=O)[O-])cc2[N+](=O)[O-])c1 | inconclusive: 100%
Cc1nc2c(C#N)cnn2c2c1CCNN2C | inconclusive: 125%
CCOc1ccc(C(=O)NN2C(=S)NC(C)(C)C=C2C)cc1 | inconclusive: 110%
C=CCn1c(SCc2ccc(F)cc2)nnc1-c1sc2nc(C)cc(C)c2c1N | inconclusive: 789%
CC1c2ccsc2CCN1C(=O)NC(=O)c1ccc(Cl)cc1 (configuration not stated) | inconclusive: -33.7%
C/C(=N\NC(=O)CC#N)C1COc2ccccc2O1 (configuration not stated) | inactive: 105%
CC1(C)Cc2c(c(-c3ccccc3)nc3sc4c(=O)[nH]c(=S)[nH]c4c23)CO1 | inconclusive: 66.3%
Cc1cc(-n2c(=O)c(C#N)cc3c(=O)n4cccc(C)c4nc32)no1 | inactive: 96.7%
Cc1ccc(SCCN2CCN(C)CCC2=O)cc1 | inconclusive: 105%
COCCn1c(-c2cccc(Br)c2)nc2c(c(=O)c3ccccc3n2C)c1=O | inconclusive: 88.3%
O=C(NCc1ccccc1Cl)NC(=O)c1csc([N+](=O)[O-])c1 | inconclusive: 85.6%
CC1CCc2nc(NC(=O)CCSc3ccccc3)sc2C1 (configuration not stated) | inactive: 78.8%
CCOC(=O)c1cn[nH]c1NC(=S)Nc1ccc(Cl)cc1 | inconclusive: 75.8%
CC(Nc1ccccc1)c1cccnc1 (configuration not stated) | inconclusive: 104%
Cc1sc2ncn(CC(=O)NCC3COc4ccccc4O3)c(=O)c2c1S(=O)(=O)N1CCCCC1 (configuration not stated) | inactive: 99.7%

For reference, part of the list above:
Compound | binding response (% of control)
Cc1c(Cc2ccccc2)c(NCCCO)n2c(nc3ccccc32)c1C#N | inconclusive: 110%
COc1ccc(/C=N/NC(=O)Cn2nc([N+](=O)[O-])cc2C)c(OC)c1OC | inconclusive: 110%
Cc1cc(NC(=O)c2ccccc2Cl)n(C(C)(C)C)n1 | inconclusive: 110%
Cc1ccc(C)c(S(=O)(=O)N/N=C/c2ccc(N3CCOCC3)cc2)c1 | inconclusive: 87%

Single values from the results shown.
Under binding response (% of control), Cc1ccc(C)c(S(=O)(=O)N/N=C/c2ccc(N3CCOCC3)cc2)c1 shows inconclusive: 87%
Under binding response (% of control), CCOC(=O)c1cn[nH]c1NC(=S)Nc1ccc(Cl)cc1 shows inconclusive: 75.8%

Later entries:

Compound | binding response (% of control)
Cc1ccccc1NC(=O)NC(N)=O | inconclusive: 96.8%
S=c1nc(C2CC2)n(-c2ccccc2)[nH]1 | inconclusive: 128%
NNC(=O)C(Cc1c[nH]c2ccccc12)NC(=O)c1ccccc1 (configuration not stated) | inconclusive: 74.3%
Cc1nn(C)c(C)c1CNC(=O)Nc1cccc(Cl)c1C | inactive: 95.8%
N=c1n(CCCOc2ccc(F)cc2)c2ccccc2n1CC(N)=O | inconclusive: 106%
Cc1cc(=O)[nH]c(N/N=C/c2c[nH]c3ccccc23)n1 | inconclusive: 65.5%
Cc1nc2c(C(=O)Nc3ccc(N4CCCC(O)C4)cc3)snc2c(=O)[nH]1 (configuration not stated) | inconclusive: 83.3%
CC(=O)N1N=C(c2cccs2)CC1c1cc2cc(C)ccc2nc1Cl (configuration not stated) | inconclusive: 89%
Cc1ccc(Nc2nnc(SCC(=O)NCCN3C(=O)CSC3=O)s2)cc1C | inactive: 100%
CCC(C)NC(=O)CC(c1ccccc1)c1cc(C)ccc1O (configuration not stated) | inconclusive: 108%
Cc1cc(C)c2c(c1)N[C@H](c1cccs1)[C@@H]1CCO[C@H]21 | inconclusive: 45.9%
Cc1ccc(CNC(=O)c2cc3c(=O)n4ccccc4nc3n(CC3CCCO3)c2=N)cc1 (configuration not stated) | inactive: 101%
CC(=O)Nc1ccc(OCc2nnc(-c3ccc(Cl)cc3)o2)cc1 | inactive: 92.9%
COc1cccc(-c2cc(C(F)(F)F)nc(-n3cc(C)cn3)n2)c1 | inconclusive: 106%
Oc1ccc(-c2[nH]ncc2-c2cnn(-c3ccccc3)c2)c(O)c1 | inconclusive: 111%
N#CCSc1nnc(SCC#N)s1 | inconclusive: 93.2%
Cc1cc(C)n2c(SCC(=O)NC3CCCCC3C)nnc2n1 (configuration not stated) | inconclusive: 89.1%
Cc1cc2ccc3ccccc3c2cc1CN(C)C | inconclusive: 122%
CC1CCCC(C)N1C(=O)c1cc2ncc(CCCl)cn2n1 (configuration not stated) | inactive: 101%
O=C(O)CCCC(=O)N1N=C(c2ccccc2)CC1c1cccs1 (configuration not stated) | inconclusive: 101%
S=C1NC[C@H](Cc2cccc3ccccc23)N1CC1CCCCC1 | inconclusive: 107%
O=C(Nc1ccc(O)cc1)c1c(O)c2c([nH]c1=O)CCCC2 | inconclusive: 98.5%
CCN(CC)S(=O)(=O)c1ccc(C(=O)Nc2ccc3c(c2)OCO3)cc1 | inconclusive: 83.1%

Compound | binding response (% of control)
CC(=O)Nc1ccc(S(=O)(=O)N2CCN(c3ccccn3)CC2)cc1 | inactive: 111%
COc1cc(C(=O)N/N=C/c2sc(N3CCOCC3)nc2-c2ccccc2)cc(OC)c1OC | inconclusive: 79.1%
CCC1=C2CC[C@H]3C(=O)NC(=O)[C@H]3[C@H]2[C@@]2(Cc3ccccc3)C(=NCC(=O)OC)OC(=O)N2C1=O | inconclusive: 88.6%
COc1ccc(CCN2C(=O)CC(Cc3ccccc3)C2=O)cc1OC (configuration not stated) | inconclusive: 95.2%
CCCOc1ccc(-c2nc(-c3ccc(N)cc3)cs2)cc1 | inconclusive: 88.2%
CC1(/[N+]([O-])=C/c2cccc(Cl)c2)CCCCC1=O (configuration not stated) | inconclusive: 82.5%
COc1cc(C(=S)N2CCOCC2)ccc1OC(=O)c1cc([N+](=O)[O-])c(C)c([N+](=O)[O-])c1 | inactive: 91.2%
CCc1nnc(N2C(=N)SCC2=O)s1 | inactive: 98.5%
C=CCN(C(=O)C1=NN(C2CCS(=O)(=O)C2)C(=O)CC1)c1nc(-c2ccc([N+](=O)[O-])cc2)cs1 (configuration not stated) | inactive: 104%
CCOC(=O)N1CC(=O)Nc2ccc(Br)cc2C1c1ccccc1 (configuration not stated) | inconclusive: 125%
Cc1occc1C(=O)O/N=C(\N)c1ccc(Cl)cc1 | inconclusive: 63.8%
Cc1cc(-c2nnc(SCC(=O)Nc3ccccc3Cl)n2C)no1 | inconclusive: 62.9%
CC(C)c1ccc(NC(=O)c2cc3c(=O)n(C)c4ccccc4c3n2C)cc1 | inconclusive: 75.8%
O=C(Nc1ccc(Br)cc1)c1cc2ccccn2n1 | inconclusive: 109%
O=S(=O)(c1cccc(C(F)(F)F)c1)N1CCCC1c1cccnc1 (configuration not stated) | inconclusive: 113%
COCCSc1ccccc1C(=O)N1CCCC(C)C1 (configuration not stated) | inconclusive: 108%
Cc1c(C(=O)NCCSCc2cccc(C(F)(F)F)c2)cnn1-c1ccc(Cl)cc1 | inconclusive: 114%
COC(=O)[C@@H]1C[C@@]2(O)[C@H](O)[C@H](O)[C@H](O)C[C@H]2N1Cc1ccc(C)s1 | inconclusive: 104%
Nc1nc(CN2CCN(Cc3ccccc3)CC2)nc(N2CCCc3ccccc32)n1 | inconclusive: 118%
CCCOc1ccc(/C(O)=C2/C(=O)C(=O)N(CCCn3ccnc3)C2c2cccnc2)cc1 (configuration not stated) | inconclusive: 117%
COc1ccc(-c2c[n+](CC(=O)c3ccccc3)c3n2CCCCC3)cc1 | inconclusive: 36.5%
O=C(N=C1N=C2C=CC(Br)=CN2Cc2ccccc21)c1ccc([N+](=O)[O-])cc1[N+](=O)[O-] | inconclusive: 235%
COc1ccc(-c2cn[nH]c2-c2ccc(OCc3ccc(F)cc3)cc2O)cc1OC | inconclusive: 96.4%
